Measured values reported in ChEMBL document CHEMBL4007428, “Modulating the selectivity of matriptase-2 inhibitors with unnatural amino acids” (Eur J Med Chem, 2017).

Tests used:
[1] = biological target: T1, Suppressor of tumorigenicity 14 protein (Homo sapiens, UniProt Q9Y5Y6)
T1 sequence (Q9Y5Y6 whole entry): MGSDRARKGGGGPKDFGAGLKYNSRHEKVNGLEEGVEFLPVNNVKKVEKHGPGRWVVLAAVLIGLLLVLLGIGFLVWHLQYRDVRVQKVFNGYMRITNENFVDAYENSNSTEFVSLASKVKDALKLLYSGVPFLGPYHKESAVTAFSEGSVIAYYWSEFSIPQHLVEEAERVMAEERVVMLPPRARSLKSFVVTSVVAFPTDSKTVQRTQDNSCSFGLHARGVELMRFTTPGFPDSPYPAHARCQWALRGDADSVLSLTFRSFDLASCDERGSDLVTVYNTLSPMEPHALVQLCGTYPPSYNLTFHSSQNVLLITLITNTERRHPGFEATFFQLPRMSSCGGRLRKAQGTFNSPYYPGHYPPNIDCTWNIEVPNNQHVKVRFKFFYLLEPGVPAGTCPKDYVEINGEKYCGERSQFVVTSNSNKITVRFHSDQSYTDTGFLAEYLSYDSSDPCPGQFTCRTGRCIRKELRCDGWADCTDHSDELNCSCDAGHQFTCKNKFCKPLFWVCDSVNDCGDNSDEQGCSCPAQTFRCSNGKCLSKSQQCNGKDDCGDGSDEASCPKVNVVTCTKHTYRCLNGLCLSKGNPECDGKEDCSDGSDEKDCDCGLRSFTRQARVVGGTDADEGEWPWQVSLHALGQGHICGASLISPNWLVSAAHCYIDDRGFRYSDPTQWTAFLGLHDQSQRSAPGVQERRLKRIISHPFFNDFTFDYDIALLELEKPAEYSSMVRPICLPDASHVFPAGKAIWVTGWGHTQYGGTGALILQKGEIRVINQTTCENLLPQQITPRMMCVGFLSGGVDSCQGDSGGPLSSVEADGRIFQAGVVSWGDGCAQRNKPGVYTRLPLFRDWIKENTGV

Homo sapiens = organism: Homo sapiens; experiment: Selectivity ratio of Ki for recombinant human matriptase (596 to 855 residues) expressed in Escherichia coli to Ki for recombinant human C-terminal V5-His-tagged matriptase-2 expressed in Drosophila S2 cells

N=C(N)NCCC[C@H](NC(=O)[C@H](Cc1ccc2ccccc2c1)NC(=O)C(Cc1ccc(O)cc1)NC(=O)[C@@H](N)Cc1ccc(O)cc1)C(=O)c1nc2ccccc2s1 (single isomer, unassigned)
Ki [1]: 44 nM | Ratio Ki (Homo sapiens): 8
